# Experimental data published in the supplement of paper PMC10849652.
# The chains behind the UniProt entries cited, without tags or fusion partners. Where a name states a change or a piece, a line headed by the entry shows the natural chain unless it says otherwise.
# UniProt P42224: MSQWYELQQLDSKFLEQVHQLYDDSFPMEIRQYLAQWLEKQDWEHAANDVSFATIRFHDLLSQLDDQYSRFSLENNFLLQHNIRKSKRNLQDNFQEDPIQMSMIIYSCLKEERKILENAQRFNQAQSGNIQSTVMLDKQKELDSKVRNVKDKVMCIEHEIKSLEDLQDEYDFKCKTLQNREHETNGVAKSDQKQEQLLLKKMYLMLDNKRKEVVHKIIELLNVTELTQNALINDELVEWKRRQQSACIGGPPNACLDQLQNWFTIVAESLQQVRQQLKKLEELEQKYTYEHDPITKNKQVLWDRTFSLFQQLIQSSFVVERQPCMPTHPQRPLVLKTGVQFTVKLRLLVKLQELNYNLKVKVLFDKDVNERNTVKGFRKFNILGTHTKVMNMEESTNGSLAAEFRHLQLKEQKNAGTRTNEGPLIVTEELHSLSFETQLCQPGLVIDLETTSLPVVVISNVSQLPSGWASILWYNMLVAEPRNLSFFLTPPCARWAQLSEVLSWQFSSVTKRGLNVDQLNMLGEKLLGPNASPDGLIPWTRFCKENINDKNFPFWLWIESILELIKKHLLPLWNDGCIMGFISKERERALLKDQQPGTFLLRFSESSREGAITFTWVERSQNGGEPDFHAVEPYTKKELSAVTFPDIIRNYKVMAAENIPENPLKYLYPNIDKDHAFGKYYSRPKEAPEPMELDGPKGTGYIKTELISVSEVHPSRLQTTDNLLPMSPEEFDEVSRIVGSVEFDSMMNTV
# UniProt Q8IYB3: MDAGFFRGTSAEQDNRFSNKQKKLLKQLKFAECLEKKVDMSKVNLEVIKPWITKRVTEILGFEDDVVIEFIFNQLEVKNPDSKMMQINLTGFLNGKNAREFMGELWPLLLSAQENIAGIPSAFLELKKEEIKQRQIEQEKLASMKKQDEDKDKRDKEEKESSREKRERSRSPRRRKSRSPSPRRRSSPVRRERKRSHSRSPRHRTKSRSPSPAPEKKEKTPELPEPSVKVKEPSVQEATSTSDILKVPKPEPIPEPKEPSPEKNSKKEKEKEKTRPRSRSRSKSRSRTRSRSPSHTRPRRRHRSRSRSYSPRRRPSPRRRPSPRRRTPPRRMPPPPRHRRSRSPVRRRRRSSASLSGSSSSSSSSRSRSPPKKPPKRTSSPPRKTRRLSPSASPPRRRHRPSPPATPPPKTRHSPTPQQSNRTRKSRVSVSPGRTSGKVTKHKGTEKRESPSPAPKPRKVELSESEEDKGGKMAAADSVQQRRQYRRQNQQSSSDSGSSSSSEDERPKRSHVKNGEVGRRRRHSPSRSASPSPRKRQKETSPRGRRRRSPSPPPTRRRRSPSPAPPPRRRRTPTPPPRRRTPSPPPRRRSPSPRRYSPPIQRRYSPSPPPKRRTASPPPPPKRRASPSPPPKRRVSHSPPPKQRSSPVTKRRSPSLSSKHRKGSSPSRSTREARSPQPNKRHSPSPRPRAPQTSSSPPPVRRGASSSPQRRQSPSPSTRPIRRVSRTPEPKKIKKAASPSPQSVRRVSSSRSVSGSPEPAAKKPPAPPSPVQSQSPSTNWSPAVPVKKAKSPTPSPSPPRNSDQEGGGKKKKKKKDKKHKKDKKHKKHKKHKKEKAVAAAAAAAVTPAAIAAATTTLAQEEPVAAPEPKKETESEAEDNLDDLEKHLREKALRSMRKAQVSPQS
# UniProt P40763, whole entry, looked up: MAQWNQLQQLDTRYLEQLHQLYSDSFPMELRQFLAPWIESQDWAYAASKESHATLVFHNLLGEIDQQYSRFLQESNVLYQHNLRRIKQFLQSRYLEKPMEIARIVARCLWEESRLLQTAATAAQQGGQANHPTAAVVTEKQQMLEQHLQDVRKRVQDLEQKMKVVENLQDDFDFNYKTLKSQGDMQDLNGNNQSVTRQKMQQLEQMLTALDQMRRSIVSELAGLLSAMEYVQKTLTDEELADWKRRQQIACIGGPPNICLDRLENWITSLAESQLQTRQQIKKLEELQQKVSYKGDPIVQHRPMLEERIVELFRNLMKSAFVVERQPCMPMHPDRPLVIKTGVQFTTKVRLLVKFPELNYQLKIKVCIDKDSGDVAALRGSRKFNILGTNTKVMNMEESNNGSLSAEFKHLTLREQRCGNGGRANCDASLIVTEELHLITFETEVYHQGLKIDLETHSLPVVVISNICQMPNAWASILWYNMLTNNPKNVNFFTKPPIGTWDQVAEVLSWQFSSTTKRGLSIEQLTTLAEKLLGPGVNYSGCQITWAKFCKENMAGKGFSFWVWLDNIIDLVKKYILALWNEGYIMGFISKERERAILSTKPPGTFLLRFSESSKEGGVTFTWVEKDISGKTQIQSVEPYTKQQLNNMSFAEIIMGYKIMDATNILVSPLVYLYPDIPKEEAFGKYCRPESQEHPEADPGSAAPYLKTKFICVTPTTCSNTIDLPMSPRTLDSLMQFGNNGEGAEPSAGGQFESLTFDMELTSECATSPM
# UniProt Q8WXA9: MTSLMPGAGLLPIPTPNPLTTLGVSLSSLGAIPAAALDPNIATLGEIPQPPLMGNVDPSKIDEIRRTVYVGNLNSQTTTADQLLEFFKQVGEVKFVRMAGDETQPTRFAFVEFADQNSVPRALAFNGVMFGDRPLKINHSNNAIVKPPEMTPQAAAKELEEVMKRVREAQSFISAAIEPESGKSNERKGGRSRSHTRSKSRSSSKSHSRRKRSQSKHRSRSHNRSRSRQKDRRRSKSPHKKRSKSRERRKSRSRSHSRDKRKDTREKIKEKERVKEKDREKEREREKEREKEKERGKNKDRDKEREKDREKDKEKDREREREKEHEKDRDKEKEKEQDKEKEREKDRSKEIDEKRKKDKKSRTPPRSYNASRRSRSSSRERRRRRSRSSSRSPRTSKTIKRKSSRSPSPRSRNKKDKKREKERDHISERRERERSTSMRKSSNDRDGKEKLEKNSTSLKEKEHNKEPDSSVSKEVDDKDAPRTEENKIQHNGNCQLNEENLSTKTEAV
# UniProt Q5W111: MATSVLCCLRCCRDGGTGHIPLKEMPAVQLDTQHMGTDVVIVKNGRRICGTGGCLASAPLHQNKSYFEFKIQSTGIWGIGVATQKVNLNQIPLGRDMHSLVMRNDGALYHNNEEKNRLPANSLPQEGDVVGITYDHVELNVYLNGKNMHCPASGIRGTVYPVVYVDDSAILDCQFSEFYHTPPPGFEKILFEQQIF
# UniProt P52630: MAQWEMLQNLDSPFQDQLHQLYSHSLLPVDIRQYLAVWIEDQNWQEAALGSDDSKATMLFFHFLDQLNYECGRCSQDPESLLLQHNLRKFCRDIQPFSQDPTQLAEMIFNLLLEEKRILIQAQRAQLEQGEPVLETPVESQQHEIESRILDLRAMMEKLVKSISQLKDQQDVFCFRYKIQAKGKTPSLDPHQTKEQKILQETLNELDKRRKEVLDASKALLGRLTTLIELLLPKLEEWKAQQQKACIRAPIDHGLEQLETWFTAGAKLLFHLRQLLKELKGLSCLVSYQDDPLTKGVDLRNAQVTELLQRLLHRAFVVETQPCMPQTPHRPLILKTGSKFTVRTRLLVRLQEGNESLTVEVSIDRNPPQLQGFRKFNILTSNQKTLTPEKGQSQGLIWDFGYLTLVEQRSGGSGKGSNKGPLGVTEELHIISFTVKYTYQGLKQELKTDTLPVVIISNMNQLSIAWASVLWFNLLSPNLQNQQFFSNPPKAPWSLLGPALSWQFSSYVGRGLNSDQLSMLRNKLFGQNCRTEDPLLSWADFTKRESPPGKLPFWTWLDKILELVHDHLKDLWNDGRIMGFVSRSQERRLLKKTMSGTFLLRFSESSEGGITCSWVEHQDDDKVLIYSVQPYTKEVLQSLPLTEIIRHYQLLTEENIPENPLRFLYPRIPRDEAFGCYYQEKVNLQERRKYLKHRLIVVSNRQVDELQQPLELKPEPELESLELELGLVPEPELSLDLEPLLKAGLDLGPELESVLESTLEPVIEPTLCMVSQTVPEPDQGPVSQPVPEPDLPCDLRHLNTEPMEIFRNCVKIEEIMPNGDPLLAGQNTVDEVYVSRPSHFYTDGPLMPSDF
# UniProt Q13586, whole entry, looked up: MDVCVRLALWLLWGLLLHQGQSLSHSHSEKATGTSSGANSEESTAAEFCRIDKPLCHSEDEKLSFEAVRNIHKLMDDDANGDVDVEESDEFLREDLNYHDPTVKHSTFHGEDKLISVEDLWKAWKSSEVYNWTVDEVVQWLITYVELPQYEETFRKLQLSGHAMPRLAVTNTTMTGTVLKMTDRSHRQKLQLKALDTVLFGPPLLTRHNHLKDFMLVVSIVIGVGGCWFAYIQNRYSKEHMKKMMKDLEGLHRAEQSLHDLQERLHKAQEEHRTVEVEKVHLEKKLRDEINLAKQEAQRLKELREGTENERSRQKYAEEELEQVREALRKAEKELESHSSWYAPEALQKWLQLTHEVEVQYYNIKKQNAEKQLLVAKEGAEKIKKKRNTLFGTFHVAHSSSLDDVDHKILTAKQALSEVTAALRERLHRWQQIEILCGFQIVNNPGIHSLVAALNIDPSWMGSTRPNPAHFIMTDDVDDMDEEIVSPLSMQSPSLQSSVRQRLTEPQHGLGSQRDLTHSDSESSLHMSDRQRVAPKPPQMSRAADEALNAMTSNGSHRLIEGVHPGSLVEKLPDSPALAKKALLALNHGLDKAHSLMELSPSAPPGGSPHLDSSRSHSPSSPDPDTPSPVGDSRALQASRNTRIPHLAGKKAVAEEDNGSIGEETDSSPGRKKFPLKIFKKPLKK
# UniProt Q9C004: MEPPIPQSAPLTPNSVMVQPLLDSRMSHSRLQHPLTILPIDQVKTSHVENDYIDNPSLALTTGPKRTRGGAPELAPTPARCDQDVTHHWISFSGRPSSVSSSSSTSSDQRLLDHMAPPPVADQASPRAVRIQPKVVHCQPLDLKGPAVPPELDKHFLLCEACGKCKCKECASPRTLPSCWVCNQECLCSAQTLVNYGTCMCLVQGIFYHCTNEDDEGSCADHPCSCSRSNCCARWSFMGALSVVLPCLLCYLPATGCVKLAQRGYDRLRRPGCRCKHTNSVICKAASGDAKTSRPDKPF
# UniProt P49458: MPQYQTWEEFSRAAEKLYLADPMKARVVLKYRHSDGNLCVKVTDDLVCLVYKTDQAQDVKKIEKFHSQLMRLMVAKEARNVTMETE
# UniProt P37108: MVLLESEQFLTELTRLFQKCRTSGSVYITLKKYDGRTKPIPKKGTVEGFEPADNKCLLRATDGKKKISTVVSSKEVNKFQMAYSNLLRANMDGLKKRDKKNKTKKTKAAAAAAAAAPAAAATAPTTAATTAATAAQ
# UniProt O95793: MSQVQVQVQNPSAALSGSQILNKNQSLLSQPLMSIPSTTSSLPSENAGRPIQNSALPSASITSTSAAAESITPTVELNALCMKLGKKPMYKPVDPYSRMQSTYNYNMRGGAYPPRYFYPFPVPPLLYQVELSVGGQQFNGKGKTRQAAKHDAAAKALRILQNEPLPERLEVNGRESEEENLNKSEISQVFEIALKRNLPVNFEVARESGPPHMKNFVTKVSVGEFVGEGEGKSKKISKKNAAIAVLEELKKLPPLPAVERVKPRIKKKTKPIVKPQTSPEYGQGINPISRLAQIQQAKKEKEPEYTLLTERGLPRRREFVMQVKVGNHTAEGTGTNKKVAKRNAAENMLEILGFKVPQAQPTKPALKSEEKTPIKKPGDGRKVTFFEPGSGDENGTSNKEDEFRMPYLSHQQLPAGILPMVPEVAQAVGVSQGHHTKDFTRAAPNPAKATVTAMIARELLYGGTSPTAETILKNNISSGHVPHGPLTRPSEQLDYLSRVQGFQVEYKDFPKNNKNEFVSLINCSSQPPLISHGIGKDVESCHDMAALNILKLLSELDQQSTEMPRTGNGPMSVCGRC
# UniProt Q9Y365: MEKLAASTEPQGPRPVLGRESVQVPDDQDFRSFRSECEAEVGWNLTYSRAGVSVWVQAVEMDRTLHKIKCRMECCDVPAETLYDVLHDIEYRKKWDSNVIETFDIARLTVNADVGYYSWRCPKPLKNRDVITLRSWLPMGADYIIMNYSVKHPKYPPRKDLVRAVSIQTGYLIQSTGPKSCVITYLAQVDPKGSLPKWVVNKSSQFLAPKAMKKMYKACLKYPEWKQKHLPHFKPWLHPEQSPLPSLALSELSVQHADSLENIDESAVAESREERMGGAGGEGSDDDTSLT
# UniProt P61011: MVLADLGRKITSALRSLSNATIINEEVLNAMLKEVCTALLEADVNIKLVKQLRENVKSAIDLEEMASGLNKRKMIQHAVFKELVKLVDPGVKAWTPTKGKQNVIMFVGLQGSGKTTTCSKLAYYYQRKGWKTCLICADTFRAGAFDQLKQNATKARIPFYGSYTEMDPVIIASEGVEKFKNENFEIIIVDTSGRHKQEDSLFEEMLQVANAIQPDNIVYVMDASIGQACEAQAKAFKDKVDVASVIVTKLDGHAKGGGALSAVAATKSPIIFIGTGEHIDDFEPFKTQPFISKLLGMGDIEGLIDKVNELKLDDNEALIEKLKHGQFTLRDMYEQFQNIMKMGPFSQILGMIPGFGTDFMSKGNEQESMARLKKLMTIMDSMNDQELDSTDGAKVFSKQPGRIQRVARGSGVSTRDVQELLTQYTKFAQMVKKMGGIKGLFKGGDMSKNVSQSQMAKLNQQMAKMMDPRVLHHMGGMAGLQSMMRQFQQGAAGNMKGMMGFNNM
# Some of the results follow.
# Key:
# Assay in all cases: log2 fold change, soluble protein after heating vs DMSO (PISA); higher = thermal stabilisation; K562 lysate, 10 uM; active = over 0.2 and 3.5 SD of the protein, either way, in both replicates (recomputed)
# [1] = compound: CCCS(=O)(=O)Nc1ccc(F)c(C(=O)c2c[nH]c3ncc(-c4ccc(Cl)cc4)cc23)c1F [vemurafenib]
# Outline: (§1)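 K562 pellets were dounce-homogenised in PBS pH 7.4 containing 1 mM MgCl2, and the crude extract, at 1 mg/mL protein, was exposed to 10 μM compound for 30 min. Aliquots were heated for 3 min across 48°C-58°C, pooled, brought to 0.5% NP-40 at 4°C and spun at 21,000xg for 90 min, with the supernatant taken as soluble protein. TMTpro 16plex LC-MS/MS with equalised channel sums quantified that protein. Values are log-two fold changes in thermal stability relative to solvent controls, taken from duplicates.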
# [2] = compound: CCCS(=O)(=O)Nc1ccc(F)c(C(=O)c2c[nH]c3ncc(Cl)cc23)c1F
# Outline: as §1
# [3] = compound: CCN(CCCOc1ccc2c(Nc3cc(CC(=O)Nc4cccc(F)c4)[nH]n3)ncnc2c1)CCOP(=O)(O)O [barasertib]
# Outline: as §1
# [4] = compound: CC[C@@H]1C(=O)N(C)c2cnc(Nc3ccc(C(=O)NC4CCN(C)CC4)cc3OC)nc2N1C1CCCC1
# Outline: as §1
# [5] = compound: CC[C@@H]1C(=O)N(C)c2cnc(Nc3ccc(C(=O)N[C@H]4CC[C@H](N5CCN(CC6CC6)CC5)CC4)cc3OC)nc2N1C(C)C [volasertib]
# Outline: as §1
# [6] = compound: CCn1c(C(=O)N(C2CC2)C2CC2)cc2c3c(ncn3C)c(Nc3cc(C)n(C)n3)nc21
# Outline: as §1
# [7] = compound: CCn1cc(-c2ccnc3[nH]c(-c4cccc(CN(C)C)c4)cc23)c(-c2ccc(NC(=O)N(C)C)cc2)n1
# Outline: as §1
# [8] = compound: CN1CCC(CNc2ccc3ncc(-c4cccc(OC(F)(F)F)c4)n3n2)CC1
# Outline: as §1
# [9] = compound: CN1CCN(CCOc2cc(OC3CCOCC3)c3c(Nc4c(Cl)ccc5c4OCO5)ncnc3c2)CC1 [saracatinib]
# Outline: as §1
# [10] = compound: CN1CCN(c2nc(C3=C(c4c[nH]c5ccccc45)C(=O)NC3=O)c3ccccc3n2)CC1 [sotrastaurin]
# Outline: as §1
# [11] = compound: CN1CC[C@H](c2c(O)cc(O)c3c(=O)cc(-c4ccccc4Cl)oc23)[C@H](O)C1 [alvocidib]
# Outline: as §1
# [12] = compound: CN1CCc2c(c3ccccc3n2Cc2ccc(C(=O)NO)cc2)C1 [Tubastatin A]
# Outline: as §1
# [13] = compound: CNC(=O)C1=CC=CC=C1NC2=NC(=NC=C2Cl)NC3=C(C=C(C=C3)N4CCOCC4)OC
# Outline: as §1
# [14] = compound: CNC(=O)c1ccc(Nc2ncc(C(F)(F)F)c(NCc3nccnc3N(C)S(C)(=O)=O)n2)cc1 [defactinib]
# Outline: as §1
# [15] = compound: CNc1nc(-c2ccc3c(N)n[nH]c3c2)cc(N2C[C@@H](C(=O)NC3CCCCC3)CC[C@H]2C)n1
# Outline: as §1
# [16] = compound: COC(=O)N[C@@H](C)CNc1nccc(-c2cn(C(C)C)nc2-c2cc(Cl)cc(NS(C)(=O)=O)c2F)n1 [encorafenib]
# Outline: as §1
# [17] = compound: COC(=O)[C@H](CCSC)NC(=O)C1=C(C=C(C=C1)NC[C@H](CS)N)C2=CC=CC=C2
# Outline: as §1
# [18] = compound: COc1cc(Nc2ncc3c(n2)-c2ccc(Cl)cc2C(c2c(F)cccc2OC)=NC3)ccc1C(=O)O [alisertib]
# Outline: as §1
# [19] = compound: COc1cc2nc(-c3cc(F)ccc3O)nc(N[C@@H]3CNC[C@H]3C(C)(C)O)c2cc1OC
# Outline: as §1
# [20] = compound: COc1cc2ncnc(Nc3ccc(F)c(Cl)c3)c2cc1OCCCN1CCOCC1 [gefitinib]
# Outline: as §1
Target,log2 fold change [1],log2 fold change [2],log2 fold change [3],log2 fold change [4],log2 fold change [5],log2 fold change [6],log2 fold change [7],log2 fold change [8],log2 fold change [9],log2 fold change [10],log2 fold change [11],log2 fold change [12],log2 fold change [13],log2 fold change [14],log2 fold change [15],log2 fold change [16],log2 fold change [17],log2 fold change [18],log2 fold change [19],log2 fold change [20]
SQSTM1 (UniProt Q13501),inactive: 0.037,inactive: 0.04,inactive: -0.004,inactive: 0.05,inactive: -0.023,inactive: -0.025,inactive: 0.039,inactive: -0.026,inactive: 0.042,inactive: 0.025,inactive: 0.059,inactive: -0.013,inactive: -0.026,inactive: 0.007,inactive: -0.018,inactive: -0.012,inactive: -0.042,inactive: -0.005,inactive: -0.016,inactive: -0.018
STAT1 (UniProt P42224),inactive: -0.016,inactive: 0.018,inactive: 0.058,inactive: -0.058,inactive: -0.078,inactive: 0.012,inactive: -0.071,inactive: -0.01,inactive: 0.021,inactive: 0.03,inactive: -0.021,inactive: -0.074,inactive: 0.004,inactive: 0.014,inactive: -0.023,inactive: 0.012,inactive: 0.016,inactive: 0.022,inactive: -0.012,inactive: -0.024
SRRM1 (UniProt Q8IYB3),inactive: -0.103,inactive: 0.014,inactive: 0.008,inactive: -0.007,inactive: 0.004,inactive: 0.003,inactive: 0.035,inactive: -0.018,inactive: -0.023,inactive: -0.07,inactive: -0.019,inactive: 0.02,inactive: -0.001,inactive: -0.011,inactive: -0.006,inactive: 0.033,inactive: -0.06,inactive: 0.016,inactive: -0.006,inactive: -0.031
STAT3 isoform 2 (UniProt P40763),inactive: 0.033,inactive: 0.021,inactive: -0.003,inactive: -0.03,inactive: -0.044,inactive: -0.008,inactive: 0.049,inactive: -0.055,inactive: 0.003,inactive: -0.011,inactive: 0.006,inactive: -0.001,inactive: 0.02,inactive: -0.005,inactive: -0.019,inactive: 0.022,inactive: 0.01,inactive: 0.007,inactive: 0.008,inactive: 0.019
SREK1 isoform 2 (UniProt Q8WXA9),inactive: 0.006,inactive: 0.02,inactive: -0.029,inactive: -0.021,inactive: -0.034,inactive: -0.018,inactive: -0.038,inactive: 0.001,inactive: -0.021,inactive: -0.006,inactive: -0.064,inactive: 0.011,inactive: -0.02,inactive: -0.024,inactive: 0.031,inactive: -0.005,inactive: 0.005,inactive: 0.023,inactive: -0.023,inactive: -0.044
SSB (UniProt E7ERC4),inactive: 0.111,inactive: 0,inactive: -0.04,inactive: -0.281,inactive: 0.003,inactive: -0.134,active: 1.92,inactive: -0.377,inactive: 0.013,inactive: -0.012,inactive: 0.132,inactive: 0.154,inactive: -0.072,inactive: -0.285,inactive: -0.023,inactive: 0.081,inactive: 0.013,inactive: -0.091,inactive: 0.095,inactive: 0.072
SPRYD7 (UniProt Q5W111),inactive: 0.011,inactive: 0.02,inactive: 0.002,inactive: -0.011,inactive: 0.048,inactive: -0.026,inactive: -0.026,inactive: 0.009,inactive: 0.013,inactive: -0.096,inactive: 0.025,inactive: 0.092,inactive: -0.024,inactive: -0.003,inactive: -0.048,inactive: -0.038,inactive: -0.065,inactive: -0.128,inactive: -0.021,inactive: 0.014
STAT2 (UniProt P52630),inactive: 0.04,inactive: 0.026,inactive: -0.021,inactive: -0.03,inactive: -0.047,inactive: 0.033,inactive: -0.011,inactive: -0.164,inactive: -0.009,inactive: 0.029,inactive: 0.02,inactive: -0.183,inactive: 0.016,inactive: -0.03,inactive: -0.018,inactive: 0.023,inactive: -0.014,inactive: 0.006,inactive: 0.004,inactive: -0.023
STIM1 (UniProt Q13586),inactive: 0.003,inactive: 0.012,inactive: 0.036,inactive: -0.076,inactive: 0.006,inactive: 0.048,inactive: 0.259,inactive: -0.205,inactive: 0.003,inactive: -0.01,inactive: 0.008,inactive: -0.056,inactive: -0.041,inactive: -0.018,inactive: 0.024,inactive: 0.003,inactive: -0.016,inactive: 0.008,inactive: -0.106,inactive: -0.013
SPRY4 (UniProt Q9C004),inactive: 0.01,inactive: 0.012,inactive: -0.071,inactive: 0.084,inactive: 0.011,inactive: -0.039,inactive: 0.038,inactive: 0.02,inactive: 0.002,inactive: -0.003,inactive: -0.027,inactive: 0.075,inactive: 0.046,inactive: 0.048,inactive: 0.033,inactive: 0.031,inactive: -0.09,inactive: -0.094,inactive: 0.024,inactive: -0.041
SRP9 (UniProt P49458),inactive: -0.01,inactive: -0.009,inactive: 0.012,inactive: -0.019,inactive: 0.022,inactive: 0.013,inactive: -0.029,inactive: -0.029,inactive: -0.018,inactive: -0.04,inactive: 0.013,inactive: 0.023,inactive: -0.006,inactive: 0.01,inactive: -0.03,inactive: -0.005,inactive: 0.008,inactive: 0.017,inactive: -0.02,inactive: -0.021
SREBF2 (UniProt Q12772),inactive: -0.067,inactive: -0.038,inactive: 0.036,inactive: -0.122,inactive: 0,inactive: 0.024,inactive: 0.183,inactive: 0.05,inactive: -0.078,inactive: -0.064,inactive: -0.045,inactive: -0.033,inactive: -0.016,inactive: -0.112,inactive: -0.012,inactive: -0.057,inactive: -0.002,inactive: 0.025,inactive: 0.053,inactive: 0.058
SRP14 (UniProt P37108),inactive: 0.002,inactive: -0.016,inactive: -0.024,inactive: 0.023,inactive: 0.016,inactive: -0.031,inactive: -0.11,inactive: -0.012,inactive: -0.006,inactive: 0.02,inactive: -0.009,inactive: 0.06,inactive: -0.011,inactive: -0.057,inactive: 0.024,inactive: -0.009,inactive: -0.011,inactive: 0.038,inactive: -0.002,inactive: 0.027
STAU1 (UniProt O95793),inactive: 0.027,inactive: 0.003,inactive: 0.01,inactive: 0,inactive: -0.013,inactive: 0.069,inactive: 0.25,inactive: -0.103,inactive: 0.004,inactive: -0.039,inactive: 0.062,inactive: -0.06,inactive: 0.051,inactive: 0.027,inactive: -0.04,inactive: 0.078,inactive: -0.009,inactive: 0.072,inactive: -0.007,inactive: 0.012
STARD10 (UniProt Q9Y365),inactive: -0.007,inactive: 0.008,inactive: 0.007,inactive: 0.005,inactive: -0.047,inactive: 0.018,inactive: -0.12,inactive: -0.098,inactive: -0.022,inactive: 0.005,inactive: 0.039,inactive: 0.109,inactive: -0.089,inactive: 0.125,inactive: -0.089,inactive: -0.014,inactive: 0.044,inactive: -0.041,inactive: -0.021,inactive: 0.031
SRP54 (UniProt P61011),inactive: 0.02,inactive: -0.024,inactive: 0,inactive: 0.068,inactive: -0.024,inactive: 0.017,inactive: -0.059,inactive: 0.006,inactive: 0.043,inactive: 0.028,inactive: -0.023,inactive: 0.01,inactive: -0.011,inactive: 0.035,inactive: 0.023,inactive: 0.067,inactive: 0.011,inactive: 0.055,inactive: 0.043,inactive: -0.025

# Single records, as listed above. Values in the order: log2 fold change [1]	log2 fold change [2]	log2 fold change [3]	log2 fold change [4]	log2 fold change [5]	log2 fold change [6]	log2 fold change [7]	log2 fold change [8]	log2 fold change [9]	log2 fold change [10]	log2 fold change [11]	log2 fold change [12]	log2 fold change [13]	log2 fold change [14]	log2 fold change [15]	log2 fold change [16]	log2 fold change [17]	log2 fold change [18]	log2 fold change [19]	log2 fold change [20]
# STAU1 (UniProt O95793) in the list: inactive: 0.027	inactive: 0.003	inactive: 0.01	inactive: 0	inactive: -0.013	inactive: 0.069	inactive: 0.25	inactive: -0.103	inactive: 0.004	inactive: -0.039	inactive: 0.062	inactive: -0.06	inactive: 0.051	inactive: 0.027	inactive: -0.04	inactive: 0.078	inactive: -0.009	inactive: 0.072	inactive: -0.007	inactive: 0.012
# STAT2 (UniProt P52630) in the list: inactive: 0.04	inactive: 0.026	inactive: -0.021	inactive: -0.03	inactive: -0.047	inactive: 0.033	inactive: -0.011	inactive: -0.164	inactive: -0.009	inactive: 0.029	inactive: 0.02	inactive: -0.183	inactive: 0.016	inactive: -0.03	inactive: -0.018	inactive: 0.023	inactive: -0.014	inactive: 0.006	inactive: 0.004	inactive: -0.023
